Experimental data published in PubChem BioAssay AID2551 (National Center for Advancing Translational Sciences (NCATS), 2010).
The whole screen tested about 310,000 compounds, of which about 17,000 (5.5%) were called active. This list was built around the results that the source calls inconclusive (neither active nor inactive); the mix of calls is not that of the screen. Calls follow the shape of the dose curve; as a rule, active = well fitted inhibition curve with a large enough effect; inconclusive = small, poorly fitted or top-dose-only effect, or effect the other way; inactive = no such curve, though single readings can be large or run the other way. Where the call is inconclusive, the potency comes from a doubtful curve fit.

Amino acid sequences for entries named in this document (tags omitted). A change or cut given only in a name is not applied to a line headed by its entry.
UniProt P51450: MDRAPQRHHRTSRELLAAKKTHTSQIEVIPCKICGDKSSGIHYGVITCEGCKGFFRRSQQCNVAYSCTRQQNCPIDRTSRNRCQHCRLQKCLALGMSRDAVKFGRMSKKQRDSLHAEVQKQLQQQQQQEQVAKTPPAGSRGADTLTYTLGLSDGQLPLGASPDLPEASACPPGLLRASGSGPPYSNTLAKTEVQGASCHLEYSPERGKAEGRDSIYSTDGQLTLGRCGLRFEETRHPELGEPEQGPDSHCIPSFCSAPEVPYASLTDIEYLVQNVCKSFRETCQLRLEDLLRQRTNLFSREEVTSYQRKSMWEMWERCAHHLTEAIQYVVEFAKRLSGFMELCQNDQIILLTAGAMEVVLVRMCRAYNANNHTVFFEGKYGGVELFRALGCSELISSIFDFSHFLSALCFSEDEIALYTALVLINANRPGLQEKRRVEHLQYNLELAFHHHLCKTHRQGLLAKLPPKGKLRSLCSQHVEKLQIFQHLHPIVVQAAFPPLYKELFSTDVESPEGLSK

target: Nuclear receptor ROR-gamma (Mus musculus) (UniProt P51450); assay: qHTS for inhibitors of ROR gamma transcriptional activity; details: Drosophila S2 Gal4-RORgamma UAS-luciferase reporter, 20 h; activity change, negative = inhibition: at 53.6 µM (top of the series); also: nearly all actives have a fitted effect of over 60% in size
How it was run: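 ROR gamma transcriptional activity was tracked as Gal4-UAS luciferase output in stably transfected Drosophila Schneider cells, with compound added 1 hr before 700 uM copper sulfate induction and a 20 hr ambient-temperature incubation.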
% is scaled to controls: 0 for no effect and ±100 for the full control effect; potency is read from the fitted curve at half-maximal effect.

Row | Compound | activity change, negative = inhibition | Potency
1 | CCN1CCN(C(=O)c2ccc(COc3cccc(Cl)c3)o2)CC1 | inactive: 9.1% | 
2 | COC(=O)c1sccc1NC(=O)CSc1nnnn1-c1ccccc1F |  | inconclusive: 35.5 µM [activator, single point]
3 | COc1cc(Cl)ccc1NC(=S)N(CCCN1CCOCC1)Cc1cn(C)c2ccccc12 |  | active: 11.2 µM
4 | O=C(N/N=C/c1ccc[nH]1)c1sc2ccccc2c1Cl |  | active: 0.316 µM
5 | CSc1ccc(CN(C)Cc2nc3cc(C(F)(F)F)ccc3c(=O)[nH]2)cc1 |  | active: 12.6 µM
6 | Cc1cc(C(=O)N/N=C(\CCC(=O)O)c2cccs2)c2ccccc2n1 | inactive: -33.2% | 
7 | Cc1ccc(OCC(=O)N/N=C\c2cccs2)c([N+](=O)[O-])c1 |  | inconclusive: 14.1 µM [inhibitor, single point]
8 | O=C(NNC(=O)c1ccc(Oc2cc(Cl)cc(Cl)c2)o1)c1ccccc1 | inactive: -30.1% | 
9 | O=C(NNC(=O)c1ccc(Cl)cc1Cl)c1cccs1 |  | inconclusive: 11.2 µM [inhibitor, partial curve, poor fit]
10 | Cc1cccc(-n2ncc3c(NCc4cccs4)ncnc32)c1 |  | inconclusive: 2.51 µM [inhibitor, full curve, poor fit]
11 | COc1ccc(CCNC(=O)[C@H](CC(C)C)NC(=O)N2CCn3c2nc2ccccc23)cc1OC | inactive: -1.02% | 
12 | Cc1sc2nc(-c3ccccn3)[nH]c(=O)c2c1-c1ccccc1 |  | active: 1.12 µM
13 | O=C(c1cccs1)N(Cc1ccccn1)Cc1ccco1 |  | inconclusive: 35.5 µM [inhibitor, single point]
14 | O=C(CSc1nnc(-c2ccccc2)n1Cc1ccco1)Nc1ccc2c(c1)OCCO2 |  | inconclusive: 15.8 µM [activator, partial curve]
15 | Cc1cnc(NC(=O)COc2ccccc2Cl)s1 |  | active: 7.08 µM
16 | Cc1ccc(CN2C(=O)CNC2=S)cc1 |  | inconclusive: 35.5 µM [inhibitor, partial curve, poor fit]
17 | COc1cccc(Nc2nnc(SCC(=O)Nc3sccc3C(N)=O)s2)c1 |  | inconclusive: 14.1 µM [activator, single point]
18 | O=C(N=Nc1c(O)n(Cc2ccccc2)c2ccccc12)c1ccc(O)cc1 |  | inconclusive: 35.5 µM [activator, single point]
19 | COc1cc(C(=O)NCC(=O)N/N=C/c2ccccn2)cc(OC)c1OC | inactive: 2.54% | 
20 | O=c1c2cc(NC(=S)NC3CCCCC3)ccc2nc2n1CCCCC2 |  | inconclusive: 15.8 µM [inhibitor, single point]
21 | CCCC(=O)NC(C)C(c1cccs1)N1CCN(c2ccccc2)CC1 (stereo unspecified) | inactive: -2.37% | 

Quoted from the listing.
Potency, CSc1ccc(CN(C)Cc2nc3cc(C(F)(F)F)ccc3c(=O)[nH]2)cc1 is entered as active: 12.6 µM
Potency, COC(=O)c1sccc1NC(=O)CSc1nnnn1-c1ccccc1F is entered as inconclusive: 35.5 µM [activator, single point]
